Measurements from PubChem BioAssay AID2685 (National Center for Advancing Translational Sciences (NCATS), 2010).
The other results are listed elsewhere or left out. Further columns of the screen follow, without active or inactive calls. The list favours compounds with an active or inconclusive main result. Potencies come from curve fits of mixed quality, noted in brackets.

Test: qHTS Assay for Lipid Storage Modulators in Drosophila S3 Cells;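 as to cell number change: cells counted by Cell Tracker Red CMTPX staining in the red channel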
Settings: BODIPY lipid droplet fluorescence, 18-24 h; for cell number change: measured here: cell count max response, cells fed with added oleic acid
Procedure, shortened: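 Laser-scanning cytometry quantifies lipid droplet accumulation (500–530 nm total intensity; droplet/cell object ratio) in oleic acid-fed (400 uM added) Drosophila S3 cells treated with a concentration series. 20 uM Triacsin C defined 100% inhibition.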

[1] = measured here: cell number channel AC50, cells fed with added oleic acid
[2] = measured here: lipid fluorescence (Fed channel) AC50, cells fed with added oleic acid

SMILES	cell number change [%]	AC50 [1]	AC50 [2]
Cc1csc(=O)n1CC(=O)OCC(=O)Nc1ccc(F)c(F)c1	218	29.1 µM [rising, single point]	14.6 µM [rising, partial curve]
Cc1ccc(C)c(-n2c(-c3csc(C)c3)n[nH]c2=S)c1	16.2	–	0.651 µM [falling, full curve, poor fit]
CSc1ccccc1NC(=O)CN(C)C(=O)CNc1ccc(C(F)(F)F)cc1[N+](=O)[O-]	1.61	–	29.1 µM [falling, single point]
Cc1ccsc1/C=C(/C#N)C(=O)NCc1ccccc1	11.3	–	–
Cc1cc(C)c(C2=CSC3=NS(=O)(=O)CCN23)c(C)c1	2.2	–	0.259 µM [falling, partial curve, poor fit]
CN1CCC(OC(=O)c2cc3cc(Cl)cc(Cl)c3oc2=O)CC1	22	–	8.2 µM [rising, partial curve, poor fit]
O=C(Nc1cccc(S(=O)(=O)NC2=NCCC2)c1)c1c(F)cccc1Cl	0.803	–	–
Cc1csc(=O)n1CC(=O)OCC(=O)c1c(N)n(CC(C)C)c(=O)n(C)c1=O	36.7	10.3 µM [rising, partial curve]	–
Cc1ccc2c(c1)[nH]c1c(=O)n(Cc3ccco3)cnc12	–	0.00517 µM [rising, full curve, poor fit]	0.0116 µM [rising, full curve, poor fit]
Cc1ccccc1NC(=O)C1CC(=O)N(Cc2ccccc2)C1 (stereo unspecified)	29	–	5.8 µM [rising, full curve, poor fit]
O=C(N1CCOCC1)N1CCc2ccccc21	4.05	–	29.1 µM [falling, single point]
CC(=O)Nc1ccc(S(=O)(=O)Nc2cccc(-c3nc4ccccc4o3)c2)cc1	–	–	29.1 µM [rising, partial curve]
CSc1ncc(CN2CCN(CCC(C)C)C(CCO)C2)cn1 (stereo unspecified)	7.12	–	23.1 µM [rising, partial curve]
O=C(COC(=O)c1ccc(Cl)nc1)NC1CCCCCC1	13.5	–	1.84 µM [rising, single point]
COc1cc(NC(=S)NC(=O)c2ccc(C)cc2C)ccc1NC(=O)c1cccs1	–	–	0.517 µM [falling, single point]
O=C(/C=C/c1ccc(Cl)cc1)OCC(=O)c1ccc[nH]1	-10.4	–	32.6 µM [falling, single point]
COc1cccc(NC(=O)CC2COc3ccccc3O2)c1 (stereo unspecified)	-13.8	–	29.1 µM [rising, single point]
Cc1nonc1CN(C)C(=O)CC1C(=O)NCCN1Cc1ccc(F)c(F)c1 (stereo unspecified)	-16.9	–	–
O=C(NCc1ccc(Cl)cc1)c1cccc(S(=O)(=O)N2CCCC2)c1	-4.39	–	3.26 µM [falling, single point]
O=C(c1ccc(CNc2c(N3CCCC3)c(=O)c2=O)cc1)N1CCN(C2CCCCC2)CC1	-29.9	0.0184 µM [falling, full curve, poor fit]	0.146 µM [falling, full curve]

2 records drawn at random from those above, as already listed:
SMILES	cell number change [%]	AC50 [1]	AC50 [2]
Cc1csc(=O)n1CC(=O)OCC(=O)c1c(N)n(CC(C)C)c(=O)n(C)c1=O	36.7	10.3 µM [rising, partial curve]	–
Cc1ccc2c(c1)[nH]c1c(=O)n(Cc3ccco3)cnc12	–	0.00517 µM [rising, full curve, poor fit]	0.0116 µM [rising, full curve, poor fit]

The listing continues.

SMILES	cell number change [%]	AC50 [1]	AC50 [2]
O=c1[nH]c(Cc2cccs2)nc2ccccc12	37.4	29.1 µM [rising, single point]	7.31 µM [falling, partial curve, poor fit]
Cc1nc([N+](=O)[O-])c(C(=O)O)n1C	10.5	3.66 µM [falling, single point]	5.17 µM [falling, single point]
C=CCN1C(=O)C(Cc2ccc(F)cc2)S/C1=N/N=C/c1ccco1 (stereo unspecified)	-9.44	–	0.00517 µM [falling, full curve, poor fit]
Cc1cc(Br)ccc1OCC(=O)NNC(=O)C(=O)Nc1ccccc1	31.3	18.4 µM [rising, partial curve, poor fit]	–
NS(=O)(=O)c1cccc(NC(=O)CNC(=O)CC23CC4CC(CC(C4)C2)C3)c1	-4.93	–	–
Cc1ccc(CNC(=O)CSc2nc3n[nH]c(C)c3c(=N)n2-c2cccc(C)c2)cc1	–	0.291 µM [rising, partial curve, poor fit]	6.51 µM [rising, partial curve, poor fit]
CC(=O)c1ccc(OCCCCCCCOc2ccc(C(C)=O)cc2)cc1	12.9	–	6.51 µM [falling, single point]
O=C(Nc1ccc(S(=O)(=O)N2CCCCC2)cc1)c1ccncc1	-12.9	–	–
CCOC(=O)C(Cc1ccccc1)NC(=O)CCc1nnc2ccc(N3CCCCC3)nn12 (stereo unspecified)	-33.1	0.103 µM [falling, full curve, poor fit]	–
CCN1CCN(c2ccc(NC(=O)CCc3c(C)nc4c(-c5ccccc5)c(C)nn4c3C)cc2)CC1	-35.9	29.1 µM [falling, single point]	–
COc1ccc(C(=O)NCC(=O)OCn2nnc3ccccc3c2=O)cc1OC	3.28	–	–
CC(C)(C)c1cc(/C=N/O)cc(C(C)(C)C)c1O	-37.2	29.1 µM [falling, single point]	25.9 µM [falling, single point]
COc1cc(C(=O)OC2CCN(C)CC2)cc(OC)c1OC	-44.5	29.1 µM [falling, single point]	–
N=c1c2c(n(Cc3ccc(Cl)cc3)c3c1CCC3)CCC2	-49.4	20.6 µM [falling, single point]	0.731 µM [rising, full curve, poor fit]
CCCn1c(SCC(=O)Nc2nnc(CC)s2)nc2c1c(=O)n(C)c(=O)n2C	-8.26	–	–
COc1cc(OC)cc(-c2cc3nc(C)c(CCC(=O)NC(C)CCc4ccco4)c(C)n3n2)c1 (stereo unspecified)	–	–	6.51 µM [rising, single point]
Cc1ccc(N2C(=O)CC(Sc3ncccn3)C2=O)cc1C (stereo unspecified)	39.6	0.00461 µM [rising, full curve, poor fit]	29.1 µM [rising, single point]
COc1ccc(NC(=O)C2CCCN(S(=O)(=O)c3ccc4c(c3)CC(C)N4C(C)=O)C2)cc1 (stereo unspecified)	-7.91	–	2.91 µM [rising, single point]
Cc1ccc(NC(=O)c2ccc(Cn3cc([N+](=O)[O-])cn3)cc2)c(C)c1	0.235	–	–
COc1ccc(NC(=O)c2cc(S(=O)(=O)N3CCCC3)c[nH]2)cc1	-4.19	–	0.092 µM [rising, full curve, poor fit]

SMILES	cell number change [%]	AC50 [1]	AC50 [2]
COc1ccc(C(=O)COC(=O)COc2cccc3c2OC(C)(C)C3)c(OC)c1	–	5.17 µM [falling, single point]	–
CC(C)(C)c1ccc(C(=O)NCC(=O)OCC(=O)N2CCN(S(=O)(=O)c3ccc(Cl)cc3)CC2)cc1	-34.9	8.2 µM [falling, partial curve, poor fit]	5.8 µM [falling, partial curve, poor fit]
COc1ccc(-c2csc(N(CCCN(C)C)C(=O)c3ccc(C(C)(C)C)cc3)n2)cc1	-57.7	–	29.1 µM [falling, single point]
NC(=O)c1c(NC(=O)CSc2nnc(-c3ccccc3)n2CC2CCCO2)sc2c1CCC2 (stereo unspecified)	–	3.26 µM [rising, partial curve]	0.291 µM [rising, partial curve, poor fit]
Cc1ccc(C(=O)N2CCCC(CCC(=O)NCc3ccc(F)c(F)c3)C2)cn1 (stereo unspecified)	13.8	–	25.9 µM [falling, single point]
CCCCNc1nnc(Cc2ccc(Cl)cc2)c(=O)[nH]1	20.4	0.00517 µM [rising, full curve, poor fit]	–
CN1c2ccccc2N(C)C1c1ccc2c(c1)OCO2	–	–	0.651 µM [falling, single point]
O=C(CSc1ccc2ccccc2n1)NC1CC1	-6.89	–	29.1 µM [rising, single point]
Cc1cc(C(=O)OCC(=O)NCc2ccccc2)c(C)o1	–	–	23.1 µM [rising, partial curve]
CCOc1ccc2nc(NC(=O)CN3CCC(n4nnc5cc(F)ccc54)CC3)sc2c1	53.7	0.366 µM [rising, full curve, poor fit]	0.366 µM [rising, full curve]
Cc1cc(Cl)c(C(=O)Nc2cccc(C(F)(F)F)c2)c(C)n1	-15	–	29.1 µM [falling, single point]
Cc1ccccc1OCC(=O)OCC(=O)NCc1cccs1	-0.23	–	29.1 µM [falling, single point]
O=C(Nc1ccc(S(=O)(=O)Nc2nccs2)cc1)c1cc(-c2ccccc2)nc2ccccc12	1.3	–	0.146 µM [rising, full curve, poor fit]
COc1ccc(OCc2cc(C(=O)N(C)CCC3CCOCC3)no2)c(Cl)c1	-21	0.082 µM [falling, full curve, poor fit]	–
CCNS(=O)(=O)c1cc(S(C)(=O)=O)ccc1Cl	-11.2	–	11.6 µM [falling, partial curve]
CCCC1C2CN(C(C)=O)CC=C2C(C#N)=C(N)C1(C#N)C#N (stereo unspecified)	-4.45	–	0.58 µM [rising, full curve, poor fit]
Cc1c(C(=O)NCc2ccccn2)oc2c(Cl)cccc12	27.1	–	6.51 µM [rising, partial curve]
CC(Sc1nnnn1-c1ccc(O)cc1)C(=O)NC1CCCCC1C (stereo unspecified)	10.2	–	11.2 µM [rising, partial curve, poor fit]
